# Measured values from patent US9139485B2, “Plant treatment agent” (UNIVERSITI PUTRA MALAYSIA, priority 2011, dated 2015).
# Marks after values point to notes of the source that are not given here.
# Experiments:
# [1] = Laboratory incubation under non-waterlogged condition: ammonia loss by closed-dynamic air flow system, then soil pH, exchangeable ammonium and available nitrate
# Experimental: Laboratory Evaluation of Treatments Under Non-waterlogged
# The same set of treatments were prepared and mixed as previously outlined except that the liquid of the treatments were used to obtain field capacity of 70%.
# (§1) The daily loss of NH3 from urea was measured by using a closed-dynamic air flow system method (Siva et al., 1999; Ahmed et al., 2006a; Ahmed et al., 2006b). The system consisted of an exchange chamber of 500 mL conical flask containing 250 g soil sample and 250 mL conical flask containing 75 mL of boric acid which were both stoppered and fit with an inlet/outlet. The inlet of the chamber was connected to an air pump and the outlet was connected by polyethylene tubing which contains boric acid and indicator solution to trap ammonia gas (Ahmed et al., 2006a; Ahmed et al., 2006b). Air was passed through the chamber at the rate of 3.5/L/min/chamber. This rate of air flow was maintained throughout the incubation period using a Gilmont flow meter to measure and adjust the air flow when necessary. The released ammonia captured in a trapping solution which contains 75 mL of boric acid with bromocresol green and methyl red indicator was titrated with 0.1 M HCl to estimate the amount of NH3 (g) released. The entire incubation was conducted at room temperature. The boric acid indicator which was used to capture ammonia was replaced every 24 h during incubation for 13 days, a period when ammonia loss was less than 1% (Ahmed et al., 2006a, 2006b). After 13 days of incubation, soil samples were analyzed for pH, exchangeable ammonium and available nitrate. Soil pH was determined by the method previously stated. The method of Keeney and Nelson (1982) was used to extract soil exchangeable ammonium and available nitrate followed by steam distillation. The experimental design was a completely randomized design with three replicates for each treatment. Analysis of variance was used to test treatment effects and means of treatments were compared using Duncan's test (SAS version 9.2).
# [2] = Laboratory incubation under waterlogged condition: ammonia loss by closed-dynamic air flow system, then soil pH, exchangeable ammonium and available nitrate
# Experimental: Laboratory Evaluation of Treatments Under Waterlogged
# Upon maintaining soil water at 70% field capacity using distilled water, the treatments below were evaluated: • i. Soil only (T0) • ii. 2.02 g urea (T1) • iii. 2.02 g urea+175 mL peat soil water (T2).
# The quantity of urea used was based on the standard recommendation for the test crop. These materials were thoroughly mixed on a reciprocal shaker at 170 rpm for 15 minutes to ensure they were uniformly mixed.
# as §1, with “The experimental design was a completely randomized design with three replicates for each treatment. Analysis of variance was used to test treatment effects and means of treatments were compared using Duncan's test (SAS version 9.2).” left out
smiles,measurement,setting,value
"NC(N)=O [Treatment T1, urea]",NH4^−N (soil exchangeable ammonium),[1]; at 13 days of incubation,85.80^c ppm
same,NO3^−N (soil available nitrate),[1]; at 13 days of incubation,4.30^b ppm
same,soil pH (water),[1]; at 13 days of incubation,7.68^a
same,Ammonia loss,[1]; total over 13 days of incubation,41.50^a %
same,NH4^−N (soil exchangeable ammonium),[2]; at 13 days of incubation,78.09^b ppm
same,NO3^−N (soil available nitrate),[2]; at 13 days of incubation,22.80^b ppm
same,Ammonia loss,"[2]; total over 13 days of incubation, 250 g soil",42.87^a %
